# Measurements taken from patent publication US20230072083A1, “SYSTEM AND METHOD FOR SCREENING OF PROTEIN-LIGAND INTERACTIONS USING PARA-HYDROGEN POLARIZATION AND NMR” (THE TEXAS A&M UNIVERSITY SYSTEM, priority 2021, published 2023).
# System: trypsin
# Test: SABRE-hyperpolarized single-scan CPMG R2 relaxation of ligand 4-amidinopyridine with or without trypsin
# Type: binding
# Conditions: for R2 relaxation rate: no protein
# Protocol: In the instant example, hydrogen gas enriched to a level of ˜50% para-content was prepared by passing room temperature hydrogen gas over iron (III) oxide spin-flip catalyst (Sigma-Aldrich, St. Louis, Mo.) in a heat exchanger, which was immersed in liquid nitrogen The ligand sample for hyperpolarization comprises 20 mM 4-amidinopyridine hydrochloride (Alfa Aesar, Ward Hill, Mass.) in methanol-d4 (Cambridge Isotope Libraries, Andover, Mass.) The sample contained 3.5 mM of the pre-catalyst [Ir(Me)(IMes)COD]Cl, which was synthesized according to a previously established protocol. For the experiments at low concentration, this stock solution of ligand was diluted to 1.5 mM and 0.3 mM catalyst. For the SABRE experiments, the para-enriched hydrogen was bubbled through the sample solution at a pressure of 8.3·10^5 Pa and at 294 K. Bubbling was performed for 30 s at a field of 6.5 mT generated by a solenoid coil (diameter 22 cm and length 28 cm). After this polarization transfer step, the sample was pushed to a sample loop using the pressure of the H2 gas. The hyperpolarized sample was injected into a NMR flow-cell concomitantly with a sample of 50 mM sodium phosphate buffer in D2O (pH 7.5), or a sample of trypsin (Alfa Aesar) at 1 mM or 18 μM dissolved in the same buffer. Where indicated, 2,2′-bipyridine (Sigma-Aldrich) at 10 mM or 2.5 mM concentration was included with the protein solution. The two solutions mixed in a Y-mixer before entering the magnet. The sample injector that was used for this purpose is described elsewhere. Briefly, both samples were pushed from an injection loop made of poly ether ether ketone (PEEK) tubing of 0.5 mm inner diameter. Two high pressure syringe pumps (Models 500D and 1000D, Teledyne Isco, Lincoln, Nebr.) were filled with water and used to transfer the sample from the injection loop to the Y-mixer and subsequently into the flow-cell. Flow rates were set to 110 ml/minute and 150 ml/minute, respectively. The injection time was 128 ms, during which the pump was active before sample mixing. […]
smiles,measurement,setting,value
N=C(N)c1ccncc1 [4-amidinopyridine],R2 relaxation rate,"hyperpolarized ligand ~7 mM + catalyst + chelating ligand 2,2′-bipyridine",0.86 ± 0.15 s⁻¹
same,R2 relaxation rate,"hyperpolarized ligand ~7 mM + polarization transfer catalyst, no 2,2′-bipyridine",2.30 ± 0.44 s⁻¹
same,"R2 relaxation rate of free reporter ligand, R2,r^(f)","hyperpolarized, 144-160 μM, catalyst and 2,2′-bipyridine, absence of trypsin",0.47 ± 0.01 s⁻¹
